# From US4329362A, “2-Amino-4-(substituted hydrazino)-6-oxo pyrimidines” (Burroughs Wellcome Co., priority 1977, dated 1982)
# For at least one compound, name, drawing or mass did not settle the structure.
# Target: dihydropteroic acid biosynthesis (DHPB): hydroxymethyldihydropteridine pyrophosphokinase and dihydropteroate synthetase
# Assay: coupled assay of dihydropteroic acid biosynthesis (kinase + synthetase), 14C H2pteroate formation
# Format: biochemical
# Settings: coupled assay method; E. coli extract, 0-50% ammonium sulfate fraction; 14C in H2 pteroate from p-aminobenzoate-7-14C; read-out: Concentration in μM required to give 50% inhibition of DHPB
# Excerpt: Potential inhibitors of DHPB synthesis may be tested by investigating the inhibitory effect they impose in the enzymes responsible for the biosynthesis of dihydropteroic acid (DPtA), namely hydroxymethyldihydropteridine pyrophosphokinase (HMPPS), and dihydropteroate synthetase, hereinafter referred to as `synthetase`. In the following reaction equations the compounds are referred to by their abbreviated forms defined hereinbefore in the specification. [formula]
# This reaction requires two enzymes since the starting substrates are H2 ptCH2 OH, ATP, and pAB, and the products are H2 pteroate and AMP.
# The reactions are followed by determining the amount of ^14 C in H2 pteroate after separation from the substrate, p-aminobenzoate-7-^14 C, by paper chromatography.
smiles,measurement,value
"Cn1nc(Cc2c[nH]c3ccccc23)c(=O)c2c(=O)[nH]c(N)nc21 [3-Indolylmethyl, 7-amino-1-methyl-3-indolylmethyl-4-oxo-5-hydroxy-1,4-dihydropyrimido(4,5-c)pyridazine]",IC50,3 µM
